Source: US20240166765A1, “INFLAMMATORY DISEASE TREATMENT USING ANTI-TISSUE FACTOR ANTIBODIES” (Iconic Therapeutics LLC, priority 2020, published 2024)

Tested on: chimeric human-rat TF constructs expressed on HEK293 cells
Assay: Epitope binning, chimeric TF construct mapping (live cell staining assay)
Type: binding
Conditions: assignment based on unbound chimeric constructs
Experimental: To establish binding of the anti-human TF antibodies to the various TF constructs, HEK293 cells were transfected with a DNA plasmid that co-expresses the TF construct and a green fluorescent protein marker. For a subset of the antibodies, an antibody titration (a 12-point 1:3 dilution series starting at 250 nM) was evaluated on select TF constructs (See international PCT application PCT/US2019/012427 and U.S. utility application Ser. No. 16/959,652, incorporated herein by reference in their entirety). […] Two days after transfection, cells were collected from the tissue culture plate, stained with 15 μg/ml of the indicated anti-TF antibody, washed, stained with anti-human IgG-Fc Alexa Fluor 647 polyclonal antibody, washed, and stained with the viability dye 4′,6-Diamidino-2-Phenylindole, Dihydrochloride. Upon acquisition of 80,000 live events on a flow cytometer, live cells marked with the fluorescent marker were analyzed for the degree of staining by the anti-TF antibody. […] As used herein, the term “live cell staining assay” refers to the antibody binding assay used in this example.
When “Percentage antibody binding to TF construct relative to hTF” in Tables 51 and 52 was less than 50%, the antibody was considered a non-binder (0) in Tables 53 and 54.

| Substance | Epitope Bin |
| --- | --- |
| 5G9: previously described TF-specific antibody | 4 |
| TF-011 | 1 |
